Experimental data as given in the supplement of paper PMC10849652.
This is one part of the list.

The chains behind the UniProt entries cited, without tags or fusion partners. Where a name states a change or a piece, a line headed by the entry shows the natural chain unless it says otherwise.
UniProt Q14202: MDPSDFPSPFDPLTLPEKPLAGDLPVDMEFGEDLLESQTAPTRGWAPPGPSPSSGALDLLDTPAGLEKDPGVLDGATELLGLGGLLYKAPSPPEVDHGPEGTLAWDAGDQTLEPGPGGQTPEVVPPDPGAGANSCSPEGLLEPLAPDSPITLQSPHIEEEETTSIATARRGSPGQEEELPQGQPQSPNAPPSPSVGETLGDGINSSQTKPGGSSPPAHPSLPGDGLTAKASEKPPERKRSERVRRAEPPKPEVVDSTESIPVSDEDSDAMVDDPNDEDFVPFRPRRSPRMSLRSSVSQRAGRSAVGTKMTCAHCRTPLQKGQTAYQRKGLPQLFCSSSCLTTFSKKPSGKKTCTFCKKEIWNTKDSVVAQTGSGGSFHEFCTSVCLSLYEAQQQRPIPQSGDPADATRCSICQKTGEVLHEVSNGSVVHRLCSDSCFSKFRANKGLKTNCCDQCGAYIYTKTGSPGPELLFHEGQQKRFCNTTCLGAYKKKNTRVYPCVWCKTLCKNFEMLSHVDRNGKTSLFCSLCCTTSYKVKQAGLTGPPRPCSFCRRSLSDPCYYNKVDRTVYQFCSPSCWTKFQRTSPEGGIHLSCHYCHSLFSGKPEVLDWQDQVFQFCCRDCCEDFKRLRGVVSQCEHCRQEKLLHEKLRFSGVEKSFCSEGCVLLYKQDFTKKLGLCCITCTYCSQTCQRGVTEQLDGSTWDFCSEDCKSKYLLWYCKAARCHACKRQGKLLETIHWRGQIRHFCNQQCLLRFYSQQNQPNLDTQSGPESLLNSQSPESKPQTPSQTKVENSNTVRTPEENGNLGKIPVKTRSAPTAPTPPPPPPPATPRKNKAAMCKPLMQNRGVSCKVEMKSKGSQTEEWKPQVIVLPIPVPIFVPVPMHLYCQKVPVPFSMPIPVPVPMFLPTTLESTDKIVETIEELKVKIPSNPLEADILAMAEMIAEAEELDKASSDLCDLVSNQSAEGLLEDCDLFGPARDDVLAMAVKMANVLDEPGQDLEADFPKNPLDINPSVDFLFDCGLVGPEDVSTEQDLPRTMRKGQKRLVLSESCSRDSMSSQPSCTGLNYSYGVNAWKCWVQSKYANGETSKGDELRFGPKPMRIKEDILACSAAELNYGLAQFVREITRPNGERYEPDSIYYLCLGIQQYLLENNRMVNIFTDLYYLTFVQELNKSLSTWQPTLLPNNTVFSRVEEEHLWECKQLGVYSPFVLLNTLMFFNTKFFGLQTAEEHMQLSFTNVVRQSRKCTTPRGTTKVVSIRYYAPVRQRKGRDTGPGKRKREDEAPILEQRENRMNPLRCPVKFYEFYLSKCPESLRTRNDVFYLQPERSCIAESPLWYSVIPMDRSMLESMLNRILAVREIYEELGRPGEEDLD
UniProt Q9UHR6: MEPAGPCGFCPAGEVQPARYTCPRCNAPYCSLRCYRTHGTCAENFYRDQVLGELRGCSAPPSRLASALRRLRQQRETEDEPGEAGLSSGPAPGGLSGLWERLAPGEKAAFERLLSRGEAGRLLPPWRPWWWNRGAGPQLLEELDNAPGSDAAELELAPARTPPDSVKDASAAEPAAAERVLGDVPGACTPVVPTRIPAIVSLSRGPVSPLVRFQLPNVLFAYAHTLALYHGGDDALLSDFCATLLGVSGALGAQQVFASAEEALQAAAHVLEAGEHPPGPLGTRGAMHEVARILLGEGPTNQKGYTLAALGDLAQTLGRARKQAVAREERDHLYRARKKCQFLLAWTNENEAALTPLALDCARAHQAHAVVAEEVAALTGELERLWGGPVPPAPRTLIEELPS
UniProt Q9Y3S2: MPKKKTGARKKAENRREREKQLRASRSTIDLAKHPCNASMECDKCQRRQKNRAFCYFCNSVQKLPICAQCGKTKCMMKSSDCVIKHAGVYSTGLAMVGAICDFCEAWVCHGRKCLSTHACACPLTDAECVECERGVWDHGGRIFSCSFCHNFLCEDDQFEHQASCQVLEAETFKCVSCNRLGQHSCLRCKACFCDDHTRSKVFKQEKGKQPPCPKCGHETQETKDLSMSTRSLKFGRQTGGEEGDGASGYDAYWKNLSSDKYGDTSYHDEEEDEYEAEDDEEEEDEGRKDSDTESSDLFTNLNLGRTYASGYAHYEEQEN
UniProt P17026: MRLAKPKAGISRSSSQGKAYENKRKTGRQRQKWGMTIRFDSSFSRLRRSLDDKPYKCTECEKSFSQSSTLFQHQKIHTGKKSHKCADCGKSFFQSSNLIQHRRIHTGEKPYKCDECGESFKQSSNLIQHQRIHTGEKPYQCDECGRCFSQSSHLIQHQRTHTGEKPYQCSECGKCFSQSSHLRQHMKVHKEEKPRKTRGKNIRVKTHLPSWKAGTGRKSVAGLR
UniProt P52747: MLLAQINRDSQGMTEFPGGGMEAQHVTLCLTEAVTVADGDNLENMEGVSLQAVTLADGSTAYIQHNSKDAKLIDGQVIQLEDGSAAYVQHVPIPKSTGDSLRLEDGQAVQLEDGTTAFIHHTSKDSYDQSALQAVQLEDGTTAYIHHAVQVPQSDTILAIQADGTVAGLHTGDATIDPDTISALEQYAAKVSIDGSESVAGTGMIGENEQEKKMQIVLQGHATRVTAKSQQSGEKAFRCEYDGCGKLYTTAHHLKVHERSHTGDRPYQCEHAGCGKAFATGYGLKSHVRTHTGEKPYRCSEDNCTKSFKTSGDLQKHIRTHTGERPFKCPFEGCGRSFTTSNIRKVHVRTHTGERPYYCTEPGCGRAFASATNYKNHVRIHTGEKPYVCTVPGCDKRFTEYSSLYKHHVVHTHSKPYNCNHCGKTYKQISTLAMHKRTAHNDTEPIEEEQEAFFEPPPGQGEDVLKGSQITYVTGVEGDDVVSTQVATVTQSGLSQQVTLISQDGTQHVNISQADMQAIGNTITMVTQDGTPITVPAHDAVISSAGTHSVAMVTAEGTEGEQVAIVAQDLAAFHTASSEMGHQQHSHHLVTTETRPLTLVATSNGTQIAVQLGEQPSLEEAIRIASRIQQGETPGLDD
UniProt Q5T7W0: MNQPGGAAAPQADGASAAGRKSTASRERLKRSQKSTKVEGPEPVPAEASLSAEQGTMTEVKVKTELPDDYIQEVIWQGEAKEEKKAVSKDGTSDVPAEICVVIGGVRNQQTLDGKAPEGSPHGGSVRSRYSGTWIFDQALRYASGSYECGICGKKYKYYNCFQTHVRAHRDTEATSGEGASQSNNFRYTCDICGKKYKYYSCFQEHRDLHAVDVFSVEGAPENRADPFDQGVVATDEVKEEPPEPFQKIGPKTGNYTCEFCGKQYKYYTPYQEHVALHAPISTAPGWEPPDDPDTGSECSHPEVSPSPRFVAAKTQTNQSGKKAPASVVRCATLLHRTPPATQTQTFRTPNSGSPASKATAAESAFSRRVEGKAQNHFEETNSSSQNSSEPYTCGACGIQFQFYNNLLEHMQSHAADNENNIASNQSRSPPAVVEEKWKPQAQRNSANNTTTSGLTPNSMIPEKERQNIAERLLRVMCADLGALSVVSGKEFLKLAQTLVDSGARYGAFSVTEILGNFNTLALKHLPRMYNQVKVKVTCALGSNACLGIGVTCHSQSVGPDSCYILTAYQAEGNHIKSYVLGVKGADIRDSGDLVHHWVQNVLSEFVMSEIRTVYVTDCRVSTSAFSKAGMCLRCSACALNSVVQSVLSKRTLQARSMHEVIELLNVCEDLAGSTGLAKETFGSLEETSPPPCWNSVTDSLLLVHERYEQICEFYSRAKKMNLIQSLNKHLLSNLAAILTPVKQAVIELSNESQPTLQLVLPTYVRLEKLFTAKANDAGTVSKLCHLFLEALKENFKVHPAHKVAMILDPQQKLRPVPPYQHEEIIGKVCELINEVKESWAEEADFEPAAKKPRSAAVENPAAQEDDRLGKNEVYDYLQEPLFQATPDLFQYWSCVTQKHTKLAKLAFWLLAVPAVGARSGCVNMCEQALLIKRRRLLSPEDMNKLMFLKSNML
UniProt O95218: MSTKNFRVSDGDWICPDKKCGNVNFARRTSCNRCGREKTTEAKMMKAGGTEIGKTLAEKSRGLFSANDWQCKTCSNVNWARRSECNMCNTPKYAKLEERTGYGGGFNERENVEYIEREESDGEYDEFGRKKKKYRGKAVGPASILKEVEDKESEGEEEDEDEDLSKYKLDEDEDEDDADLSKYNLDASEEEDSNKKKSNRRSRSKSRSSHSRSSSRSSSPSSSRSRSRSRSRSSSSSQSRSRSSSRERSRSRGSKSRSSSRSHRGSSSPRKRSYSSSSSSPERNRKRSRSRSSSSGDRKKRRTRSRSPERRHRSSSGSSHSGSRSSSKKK
UniProt Q9UKY1: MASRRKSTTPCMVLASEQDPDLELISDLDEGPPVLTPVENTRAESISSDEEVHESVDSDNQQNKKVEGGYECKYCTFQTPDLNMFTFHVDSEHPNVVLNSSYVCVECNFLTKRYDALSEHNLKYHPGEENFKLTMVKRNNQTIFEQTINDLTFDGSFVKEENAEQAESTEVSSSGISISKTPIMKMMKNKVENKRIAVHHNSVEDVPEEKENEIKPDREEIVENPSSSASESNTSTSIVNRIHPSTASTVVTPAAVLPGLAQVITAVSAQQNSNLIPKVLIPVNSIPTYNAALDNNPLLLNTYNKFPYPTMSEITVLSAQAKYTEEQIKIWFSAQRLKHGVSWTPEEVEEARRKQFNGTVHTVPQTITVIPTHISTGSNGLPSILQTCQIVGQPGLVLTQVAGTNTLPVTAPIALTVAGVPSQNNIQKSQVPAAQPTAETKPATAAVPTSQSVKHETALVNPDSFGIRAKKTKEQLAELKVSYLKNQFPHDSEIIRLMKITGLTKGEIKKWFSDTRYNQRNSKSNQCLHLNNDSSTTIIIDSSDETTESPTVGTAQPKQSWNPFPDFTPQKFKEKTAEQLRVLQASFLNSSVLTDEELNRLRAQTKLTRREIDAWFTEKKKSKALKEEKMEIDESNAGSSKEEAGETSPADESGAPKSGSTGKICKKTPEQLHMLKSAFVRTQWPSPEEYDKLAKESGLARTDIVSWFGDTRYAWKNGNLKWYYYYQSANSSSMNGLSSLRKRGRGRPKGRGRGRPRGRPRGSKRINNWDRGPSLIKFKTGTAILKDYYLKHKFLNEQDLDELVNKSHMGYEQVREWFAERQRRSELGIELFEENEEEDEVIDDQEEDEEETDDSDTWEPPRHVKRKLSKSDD
UniProt O75844: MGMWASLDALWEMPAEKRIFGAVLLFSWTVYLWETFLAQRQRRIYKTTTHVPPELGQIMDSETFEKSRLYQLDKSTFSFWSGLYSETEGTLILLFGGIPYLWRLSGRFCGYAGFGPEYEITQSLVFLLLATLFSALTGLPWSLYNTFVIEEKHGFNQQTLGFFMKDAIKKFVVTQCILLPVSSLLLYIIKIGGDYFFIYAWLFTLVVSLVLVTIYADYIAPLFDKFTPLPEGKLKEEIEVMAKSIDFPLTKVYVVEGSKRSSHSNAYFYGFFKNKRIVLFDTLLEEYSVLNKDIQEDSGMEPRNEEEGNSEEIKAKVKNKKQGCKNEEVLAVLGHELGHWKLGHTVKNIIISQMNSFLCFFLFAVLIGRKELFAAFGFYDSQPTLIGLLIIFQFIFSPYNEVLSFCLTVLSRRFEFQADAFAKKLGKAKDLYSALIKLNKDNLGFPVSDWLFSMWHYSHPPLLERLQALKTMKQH
UniProt Q8NB15: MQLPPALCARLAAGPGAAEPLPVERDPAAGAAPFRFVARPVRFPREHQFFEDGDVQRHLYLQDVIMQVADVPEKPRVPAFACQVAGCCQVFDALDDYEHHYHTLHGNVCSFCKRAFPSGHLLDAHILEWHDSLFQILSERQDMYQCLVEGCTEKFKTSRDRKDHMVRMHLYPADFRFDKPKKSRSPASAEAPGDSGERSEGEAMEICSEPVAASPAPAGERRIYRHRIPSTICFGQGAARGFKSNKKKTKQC

Assays:
Experiment in all cases: log2 fold change, soluble protein after heating vs DMSO (PISA); higher = thermal stabilisation; K562 lysate, 10 uM; active = over 0.2 and 3.5 SD of the protein, either way, in both replicates (recomputed)
vemurafenib = compound: CCCS(=O)(=O)Nc1ccc(F)c(C(=O)c2c[nH]c3ncc(-c4ccc(Cl)cc4)cc23)c1F [vemurafenib]
In short: (§1)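 A 30 min treatment with 10 μM compound was applied to crude K562 extract at 1 mg/mL protein in PBS pH 7.4 with 1 mM MgCl2. Heating for 3 min spanned 48°C-58°C, after which aliquots were pooled, adjusted to 0.5% NP-40 at 4°C and spun at 21,000xg for 90 min. TMTpro 16plex LC-MS/MS of the supernatant, with channel sums equalised, gave values recorded as log-two fold change in thermal stability against solvent controls, from duplicates.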

[1] = compound: CCCS(=O)(=O)Nc1ccc(F)c(C(=O)c2c[nH]c3ncc(Cl)cc23)c1F
In short: as §1

barasertib = compound: CCN(CCCOc1ccc2c(Nc3cc(CC(=O)Nc4cccc(F)c4)[nH]n3)ncnc2c1)CCOP(=O)(O)O [barasertib]
In short: as §1

[2] = compound: CC[C@@H]1C(=O)N(C)c2cnc(Nc3ccc(C(=O)NC4CCN(C)CC4)cc3OC)nc2N1C1CCCC1
In short: as §1

volasertib = compound: CC[C@@H]1C(=O)N(C)c2cnc(Nc3ccc(C(=O)N[C@H]4CC[C@H](N5CCN(CC6CC6)CC5)CC4)cc3OC)nc2N1C(C)C [volasertib]
In short: as §1

[3] = compound: CCn1c(C(=O)N(C2CC2)C2CC2)cc2c3c(ncn3C)c(Nc3cc(C)n(C)n3)nc21
In short: as §1

[4] = compound: CCn1cc(-c2ccnc3[nH]c(-c4cccc(CN(C)C)c4)cc23)c(-c2ccc(NC(=O)N(C)C)cc2)n1
In short: as §1

[5] = compound: CN1CCC(CNc2ccc3ncc(-c4cccc(OC(F)(F)F)c4)n3n2)CC1
In short: as §1

saracatinib = compound: CN1CCN(CCOc2cc(OC3CCOCC3)c3c(Nc4c(Cl)ccc5c4OCO5)ncnc3c2)CC1 [saracatinib]
In short: as §1

sotrastaurin = compound: CN1CCN(c2nc(C3=C(c4c[nH]c5ccccc45)C(=O)NC3=O)c3ccccc3n2)CC1 [sotrastaurin]
In short: as §1

alvocidib = compound: CN1CC[C@H](c2c(O)cc(O)c3c(=O)cc(-c4ccccc4Cl)oc23)[C@H](O)C1 [alvocidib]
In short: as §1

Tubastatin A = compound: CN1CCc2c(c3ccccc3n2Cc2ccc(C(=O)NO)cc2)C1 [Tubastatin A]
In short: as §1

[6] = compound: CNC(=O)C1=CC=CC=C1NC2=NC(=NC=C2Cl)NC3=C(C=C(C=C3)N4CCOCC4)OC
In short: as §1

defactinib = compound: CNC(=O)c1ccc(Nc2ncc(C(F)(F)F)c(NCc3nccnc3N(C)S(C)(=O)=O)n2)cc1 [defactinib]
In short: as §1

[7] = compound: CNc1nc(-c2ccc3c(N)n[nH]c3c2)cc(N2C[C@@H](C(=O)NC3CCCCC3)CC[C@H]2C)n1
In short: as §1

encorafenib = compound: COC(=O)N[C@@H](C)CNc1nccc(-c2cn(C(C)C)nc2-c2cc(Cl)cc(NS(C)(=O)=O)c2F)n1 [encorafenib]
In short: as §1

[8] = compound: COC(=O)[C@H](CCSC)NC(=O)C1=C(C=C(C=C1)NC[C@H](CS)N)C2=CC=CC=C2
In short: as §1

alisertib = compound: COc1cc(Nc2ncc3c(n2)-c2ccc(Cl)cc2C(c2c(F)cccc2OC)=NC3)ccc1C(=O)O [alisertib]
In short: as §1

[9] = compound: COc1cc2nc(-c3cc(F)ccc3O)nc(N[C@@H]3CNC[C@H]3C(C)(C)O)c2cc1OC
In short: as §1

gefitinib = compound: COc1cc2ncnc(Nc3ccc(F)c(Cl)c3)c2cc1OCCCN1CCOCC1 [gefitinib]
In short: as §1

Measured: log2 fold change

ZMYND8 isoform 19 (UniProt Q9ULU4)
inactive: vemurafenib 0.061 | [1] 0.071 | barasertib 0.012 | [2] 0.016 | volasertib -0.025 | [3] -0.015 | [4] -0.127 | [5] 0.037 | saracatinib -0.01 | sotrastaurin 0.019 | alvocidib 0 | Tubastatin A -0.091 | [6] 0.017 | defactinib 0.104 | [7] -0.052 | encorafenib -0.002 | [8] 0.065 | alisertib 0.022 | [9] -0.046 | gefitinib -0.023

ZMYM3 (UniProt Q14202)
inactive: vemurafenib 0.048 | [1] 0.002 | barasertib -0.002 | [2] -0.054 | volasertib -0.004 | [3] 0.042 | [4] -0.039 | [5] -0.042 | saracatinib 0.034 | sotrastaurin -0.004 | alvocidib 0.019 | Tubastatin A -0.06 | [6] 0.002 | defactinib 0.029 | [7] -0.024 | encorafenib -0.027 | [8] -0.009 | alisertib -0.148 | [9] 0.016 | gefitinib 0.077

ZNHIT2 (UniProt Q9UHR6)
inactive: vemurafenib 0.126 | [1] 0.041 | barasertib 0.204 | [2] -0.044 | volasertib -0.133 | [3] 0.056 | [4] -0.075 | [5] 0.016 | saracatinib 0.061 | sotrastaurin -0.041 | alvocidib -0.002 | Tubastatin A -0.108 | [6] -0.067 | defactinib -0.019 | [7] -0.039 | encorafenib 0.02 | [8] 0.067 | alisertib 0.051 | [9] 0.171 | gefitinib 0.147

ZNF318 (UniProt Q5VUA4)
inactive: vemurafenib 0.089 | [1] 0.025 | barasertib 0.077 | [2] 0.025 | volasertib 0.011 | [3] -0.007 | [4] 0.086 | [5] -0.033 | saracatinib 0.079 | sotrastaurin 0.047 | alvocidib 0.033 | Tubastatin A -0.177 | [6] 0.034 | defactinib -0.055 | [7] -0.002 | encorafenib 0.03 | [8] 0.117 | alisertib 0.03 | [9] 0.142 | gefitinib 0.025

hCG_1984214 (UniProt I3L0E3)
inactive: vemurafenib 0.089 | [1] 0.032 | barasertib -0.02 | [2] 0.033 | volasertib 0.003 | [3] 0.015 | [4] -0.15 | [5] 0.052 | saracatinib 0.017 | sotrastaurin 0.022 | alvocidib 0.022 | Tubastatin A -0.061 | [6] 0.105 | defactinib -0.043 | [7] 0.024 | encorafenib -0.018 | [8] -0.017 | alisertib -0.082 | [9] 0.008 | gefitinib -0.026

ZNF330 (UniProt Q9Y3S2)
inactive: vemurafenib -0.035 | [1] 0.042 | barasertib 0.008 | [2] 0.012 | volasertib 0.016 | [3] -0.027 | [4] 0.106 | [5] 0.076 | saracatinib -0.069 | sotrastaurin -0.231 | alvocidib -0.044 | Tubastatin A 0.081 | [6] -0.042 | defactinib -0.03 | [7] 0.053 | encorafenib -0.005 | [8] -0.029 | alisertib -0.019 | [9] -0.01 | gefitinib -0.137

ZNF22 (UniProt P17026)
inactive: vemurafenib 0.15 | [1] 0.101 | barasertib -0.038 | [2] -0.237 | volasertib -0.019 | [3] -0.031 | [4] 0.02 | [5] -0.002 | saracatinib 0.084 | sotrastaurin 0.076 | alvocidib 0.131 | Tubastatin A 0.1 | [6] -0.019 | defactinib 0.183 | [7] -0.076 | encorafenib 0.064 | [8] -0.112 | alisertib -0.088 | [9] -0.065 | gefitinib 0.011

ZNF428 (UniProt M0QXZ5)
inactive: vemurafenib 0.018 | [1] 0.022 | barasertib 0.072 | [2] 0.009 | volasertib 0.039 | [3] 0.059 | [4] 0.071 | [5] 0.001 | saracatinib 0.018 | sotrastaurin -0.089 | alvocidib 0.035 | Tubastatin A 0.005 | [6] -0.061 | defactinib 0.052 | [7] 0.172 | encorafenib -0.036 | [8] -0.072 | alisertib -0.151 | [9] -0.028 | gefitinib 0.119

ZNF143 (UniProt P52747)
inactive: vemurafenib 0.083 | [1] 0.033 | barasertib -0.069 | [2] 0.084 | volasertib -0.022 | [3] -0.049 | [4] -0.017 | [5] -0.035 | saracatinib -0.067 | sotrastaurin -0.02 | alvocidib 0.007 | Tubastatin A 0.037 | [6] -0.039 | defactinib 0.011 | [7] 0.004 | encorafenib 0.041 | [8] 0.009 | alisertib -0.023 | [9] -0.016 | gefitinib 0.035

ZNF316 (UniProt A6NFI3)
inactive: vemurafenib -0.098 | [1] -0.093 | barasertib -0.03 | [2] -0.068 | volasertib 0.099 | [3] -0.058 | [4] -0.301 | [5] 0.08 | saracatinib 0.035 | sotrastaurin -0.039 | alvocidib -0.132 | Tubastatin A -0.036 | [6] -0.02 | defactinib -0.027 | [7] -0.077 | encorafenib 0.014 | [8] -0.001 | alisertib -0.005 | [9] -0.08 | gefitinib -0.083

ZNF618 (UniProt Q5T7W0)
inactive: vemurafenib -0.026 | [1] -0.004 | barasertib 0.021 | [2] 0.043 | volasertib -0.032 | [3] -0.073 | [4] -0.004 | [5] 0.089 | saracatinib 0.057 | sotrastaurin -0.019 | alvocidib -0.041 | Tubastatin A 0.008 | [6] 0.034 | defactinib 0.004 | [7] 0.042 | encorafenib 0.002 | [8] -0.052 | alisertib -0.024 | [9] -0.04 | gefitinib -0.048

ZRANB2 (UniProt O95218)
inactive: vemurafenib 0.002 | [1] -0.003 | barasertib -0.003 | [2] 0.02 | volasertib 0.022 | [3] -0.005 | [4] 0.056 | [5] -0.008 | saracatinib 0.017 | sotrastaurin -0.091 | alvocidib 0.007 | Tubastatin A 0.056 | [6] 0.019 | defactinib 0.019 | [7] 0.017 | encorafenib 0.029 | [8] -0.033 | alisertib 0.015 | [9] -0.01 | gefitinib -0.068

ZNRD2 (UniProt G3V1B8)
inactive: vemurafenib -0.095 | [1] 0.048 | barasertib 0.069 | [2] -0.115 | volasertib 0.137 | [3] -0.056 | [4] -0.25 | [5] -0.012 | saracatinib 0.059 | sotrastaurin -0.051 | alvocidib 0.035 | Tubastatin A 0.112 | [6] 0.057 | defactinib 0.123 | [7] 0.171 | encorafenib 0.15 | [8] -0.041 | alisertib -0.002 | [9] -0.067 | gefitinib -0.176

Pulled one by one from the list above, two records:
ZNF318 (UniProt Q5VUA4)
inactive: vemurafenib 0.089 | [1] 0.025 | barasertib 0.077 | [2] 0.025 | volasertib 0.011 | [3] -0.007 | [4] 0.086 | [5] -0.033 | saracatinib 0.079 | sotrastaurin 0.047 | alvocidib 0.033 | Tubastatin A -0.177 | [6] 0.034 | defactinib -0.055 | [7] -0.002 | encorafenib 0.03 | [8] 0.117 | alisertib 0.03 | [9] 0.142 | gefitinib 0.025

ZNF330 (UniProt Q9Y3S2)
inactive: vemurafenib -0.035 | [1] 0.042 | barasertib 0.008 | [2] 0.012 | volasertib 0.016 | [3] -0.027 | [4] 0.106 | [5] 0.076 | saracatinib -0.069 | sotrastaurin -0.231 | alvocidib -0.044 | Tubastatin A 0.081 | [6] -0.042 | defactinib -0.03 | [7] 0.053 | encorafenib -0.005 | [8] -0.029 | alisertib -0.019 | [9] -0.01 | gefitinib -0.137

(list continues)

ZHX1 (UniProt Q9UKY1)
active: [4] -0.603 | [5] 0.526
inactive: vemurafenib -0.058 | [1] 0.057 | barasertib 0.059 | [2] 0.144 | volasertib -0.079 | [3] -0.056 | saracatinib 0.011 | sotrastaurin 0.029 | alvocidib -0.231 | Tubastatin A -0.194 | [6] 0 | defactinib 0.034 | [7] 0.251 | encorafenib 0.041 | [8] 0.044 | alisertib 0.013 | [9] 0.042 | gefitinib 0.012

ZMPSTE24 (UniProt O75844)
inactive: vemurafenib 0.047 | [1] -0.011 | barasertib -0.014 | [2] 0.041 | volasertib 0.066 | [3] -0.013 | [4] -0.22 | [5] 0.171 | saracatinib 0.024 | sotrastaurin 0.047 | alvocidib -0.056 | Tubastatin A 0.034 | [6] 0.038 | defactinib 0 | [7] 0.022 | encorafenib 0.01 | [8] -0.031 | alisertib -0.022 | [9] 0.012 | gefitinib 0.007

ZNF511 (UniProt Q8NB15)
inactive: vemurafenib -0.059 | [1] -0.235 | barasertib 0.012 | [2] 0.04 | volasertib 0.052 | [3] 0.056 | [4] -0.58 | [5] 0.059 | saracatinib 0.024 | sotrastaurin -0.068 | alvocidib 0.026 | Tubastatin A -0.03 | [6] 0.157 | defactinib 0.008 | [7] 0.033 | encorafenib 0.01 | [8] -0.052 | alisertib -0.003 | [9] -0.014 | gefitinib -0.055
